Data from the supplement of paper PMC6445147.
Values scatter widely in this assay.

B1: human tRNA-Pro; a variant is named by its letters at N, in order (parent)
chain: GGCTCGTTGGTCTAGNGGTATGATTCTCGCTTAGGGTGCGAGAGGTCCCGGGTTCNNATCCCGGACGAGCCC

Assays:
[1] = variants of: B1; assay: tRNA Pol-III promoter activity, log2 (circRNA frequency / plasmid DNA frequency) (log2 ratio); higher = stronger promoter activity; settings: HEK293T; construct: no Pol-II promoter ((-)CMV library)
[2] = variants of: B1; assay: tRNA 3' processing efficiency (processed reads / all reads, maximum-likelihood estimate) (fraction); higher = more efficient 3' processing; settings: HEK293T; construct: no Pol-II promoter ((-)CMV library)
[3] = variants of: B1; assay: tRNA 5' processing efficiency (processed reads / all reads, maximum-likelihood estimate) (fraction); higher = more efficient 5' processing; settings: HEK293T; construct: CMV Pol-II promoter ((+)CMV library, decapped)

| Variant | tRNA Pol-III promoter activity (log2) [1] | tRNA 3' processing efficiency [2] | tRNA 5' processing efficiency [3] |
| --- | --- | --- | --- |
| GGCTCGTTGGTCTAGTGGAATGATTCTCGCTTAGGGTGCGAGAGGTCCCGGGTTCCAATCCCGGACGAGCCC [TCA T19A] | 6.53 | 0.5 | – |
| GGCTCGTCGGTCTAGGGGTATGATTCTCGCTTAGGGTGCGAGAGGTCCCGGGTTCAATTCCCGGACGAGCCC [GAA T8C A58T] | 1.57 | 0.41 | – |
| GGCTCGTTGGTCTAGTGGTATGATTCTCGCTTAGGGTGCGAGAGGTCCCGGGGTCGAATCCCGGACGAGCCC [TGA T53G] | 4.66 | 0.41 | – |
| GGCTCGTTTGTCTTGATGTATGATTCTCGCTTAGGGTGCGAGAGGTCCCGGGTTCAGATCCCGGACGAGCCC [AAG G9T A14T G17T] | 5.53 | 0.67 | – |
| GGCTCGTTGGTCTAGGGGCCTGATTCTCGCTTAGGGTGCGAGAGGTCCCGGGTTCAAATCCCGGACGAGCCC [GAA T19C A20C] | 0.298 | 0.25 | – |
| GGCTCGTTGGTCTAGGGGGATGATTCTCGCTTAGGGTGCGAGAGGTCCCGGGTTCAAAACCCGGACGAGCCC [GAA T19G T59A] | 2.54 | 0.74 | – |
| GGCTCGTTAGTCTAGGGGTATGATTCTCGCTTAGGGTGCGAGAGGTCCCGGGTTCATACCCCGGACGAGCCC [GAT G9A T59C] | 3.8 | 0.2 | – |
| GGCTCGTTGGTCTAGGCGTTTGATTCTCGCTTAGGGTGCGAGAGGTCCCGGGTTCTAATCCCGGACGAGCCC [GTA G17C A20T] | 4.52 | 0.57 | – |
| GGCTCGTTGGTCTAGGGGCATGATTCTCGCTTAGGGTGCGAGAGGTCCCGGGTTCAAGTCCCGGACGAGCCC [GAA T19C A58G] | 0.512 | 0.47 | – |
| GGCTCGTTGGTCTAGGTGCATGATTCTCGCTTAGGGTGCGAGAGGTCCCGGGTTCAAAGCCCGGACGAGCCC [GAA G17T T19C T59G] | 5.26 | 0.2 | – |
| GGCTCGTTGGTCTAGGGGTATGATTCTCGCTTAGGGTGCGAGAGGTCCCGGGGTCAACTCCCGGACGAGCCC [GAA T53G A58C] | -0.345 | 0.5 | 0.29 |
| GGCTCGTTGGTCTAGGGGTTTGATTCTCGCTTAGGGTGCGAGAGGTCCCGGGTTCAAGCCCCGGACGAGCCC [GAA A20T A58G T59C] | 4.45 | 0.17 | – |
| GGCTCGTGGGTCTTGGGGTATGATTCTCGCTTAGGGTGCGAGAGGTCCCGGGTTCTAATCCCGGACGAGCCC [GTA T8G A14T] | 0.884 | 0.25 | – |
| GGCTCGTTGGTCTAGTGGTATGATTCTCGCTTAGGGTGCGAGAGGTCCCGGGTTTTAATCCCGGACGAGCCC [TTA C55T] | 3.04 | 0.57 | – |
| GGCTCGTTGGTCTAGGGTTATGATTCTCGCTTAGGGTGCGAGAGGTCCCGGGTTCTAATCCCGGACGAGCCC [GTA G18T] | 0.149 | 0.22 | 0.5 |
| GGCTCGTCGGTCTCGGGGTATGATTCTCGCTTAGGGTGCGAGAGGTCCCGGGTTCATATCCCGGACGAGCCC [GAT T8C A14C] | 4.67 | 0.33 | – |
| GGCTCGTTGGTCTAGGGATATGATTCTCGCTTAGGGTGCGAGAGGTCCCGGGTTCAAACCCCGGACGAGCCC [GAA G18A T59C] | 0.532 | 0.33 | – |
| GGCTCGTTGGTCTAGGGGATTGATTCTCGCTTAGGGTGCGAGAGGTCCCGGGTTCTAGTCCCGGACGAGCCC [GTA T19A A20T A58G] | 7.1 | 0.11 | – |

Shown with bars between the fields: entries from further up
Variant | tRNA Pol-III promoter activity (log2) [1] | tRNA 3' processing efficiency [2] | tRNA 5' processing efficiency [3]
GGCTCGTTGGTCTAGGGGCCTGATTCTCGCTTAGGGTGCGAGAGGTCCCGGGTTCAAATCCCGGACGAGCCC [GAA T19C A20C] | 0.298 | 0.25 | –
GGCTCGTTGGTCTAGGGGGATGATTCTCGCTTAGGGTGCGAGAGGTCCCGGGTTCAAAACCCGGACGAGCCC [GAA T19G T59A] | 2.54 | 0.74 | –

Going on with the list:

| Variant | tRNA Pol-III promoter activity (log2) [1] | tRNA 3' processing efficiency [2] | tRNA 5' processing efficiency [3] |
| --- | --- | --- | --- |
| GGCTCGTTGGTCTTGTGGTATGATTCTCGCTTAGGGTGCGAGAGGTCCCGGGTTCTAAACCCGGACGAGCCC [TTA A14T T59A] | 5.03 | 0.25 | – |
| GGCTCGTTGGTCTAGGGCCATGATTCTCGCTTAGGGTGCGAGAGGTCCCGGGCGCCAATCCCGGACGAGCCC [GCA G18C T19C T53C T54G] | 5.53 | 0.22 | – |
| GGCTCGTTGGTCTGGGGGTATGATTCTCGCTTAGGGTGCGAGAGGTCCCGGGTTCTACTCCCGGACGAGCCC [GTA A14G A58C] | 3.96 | 0.2 | – |
| GGCTCGTTGGTCTAGGGGTATGATTCTCGCTTAGGGTGCGAGAGGTCCCGGGTTCAGAGCCCGGACGAGCCC [GAG T59G] | 2.43 | 0.14 | – |
| GGCTCGTGGGTCTATGTGTATGATTCTCGCTTAGGGTGCGAGAGGTCCCGGGTTCAAATCCCGGACGAGCCC [GAA T8G G15T G17T] | 4.62 | 0.22 | – |
| GGCTCGTTGGTCTAGGGTTATGATTCTCGCTTAGGGTGCGAGAGGTCCCGGGATCGAACCCCGGACGAGCCC [GGA G18T T53A T59C] | 7.03 | 0.76 | – |
| GGCTCGTTAGTCTAGGGGTATGATTCTCGCTTAGGGTGCGAGAGGTCCCGGGTTCAAGCCCCGGACGAGCCC [GAA G9A A58G T59C] | 4.94 | 0.5 | – |
| GGCTCGTTGGTCTACTGGTATGATTCTCGCTTAGGGTGCGAGAGGTCCCGGGTTCAGGTCCCGGACGAGCCC [TAG G15C A58G] | 8.63 | 0.19 | – |
| GGCTCGTTGGTCTGGGTGTATGATTCTCGCTTAGGGTGCGAGAGGTCCCGGGTTCCAGTCCCGGACGAGCCC [GCA A14G G17T A58G] | 3.36 | 0.25 | – |
| GGCTCGTTGGTCTAGGGGTGTGATTCTCGCTTAGGGTGCGAGAGGTCCCGGGGTCAAATCCCGGACGAGCCC [GAA A20G T53G] | 0.201 | 0.25 | – |
| GGCTCGTTGGTCTTGGTGTTTGATTCTCGCTTAGGGTGCGAGAGGTCCCGGGTTCCATTCCCGGACGAGCCC [GCA A14T G17T A20T A58T] | 6.26 | 0.2 | – |
| GGCTCGTTGGTCTTGGGCTATGATTCTCGCTTAGGGTGCGAGAGGTCCCGGGTACAATTCCCGGACGAGCCC [GAA A14T G18C T54A A58T] | 5.94 | 0.25 | – |
| GGCTCGTTGGTCTAGGGGTATGATTCTCGCTTAGGGTGCGAGAGGTCCCGGGTTCACTTCCCGGACGAGCCC [GAC A58T] | -0.286 | 0.29 | 0.2 |
| GGCTCGTTGGTCTAGTGGCATGATTCTCGCTTAGGGTGCGAGAGGTCCCGGGTTCACATCCCGGACGAGCCC [TAC T19C] | 5.36 | 0.4 | – |
| GGCTCGTTGGTCTGGGTGTATGATTCTCGCTTAGGGTGCGAGAGGTCCCGGGTTCGCATCCCGGACGAGCCC [GGC A14G G17T] | 5.36 | 0.4 | – |
| GGCTCGTTGGTCTAGGTGAATGATTCTCGCTTAGGGTGCGAGAGGTCCCGGGATCAAGTCCCGGACGAGCCC [GAA G17T T19A T53A A58G] | 4.68 | 0.2 | – |
| GGCTCGTTGGTCTACGGGCATGATTCTCGCTTAGGGTGCGAGAGGTCCCGGGTTCAATTCCCGGACGAGCCC [GAA G15C T19C A58T] | 5.44 | 0.16 | – |
| GGCTCGTTGGTCTAGGGGGATGATTCTCGCTTAGGGTGCGAGAGGTCCCGGGTTCCAATCCCGGACGAGCCC [GCA T19G] | 1.04 | 0.11 | – |
